These are yes or no findings as the source states them, for the method shown. In cells and extracts the contact can be indirect. Some results given as binding are weak or reduced against the parent protein; the word gives no strength.
Molecular target: Flag-tagged human tankyrase (Flag-TNKS, human tankyrase 1) (human) (UniProt O95271)
Assay: co-IP; Flag-TNKS and associated proteins precipitated with anti-Flag antibodies on G/A beads from lysates of U2OS cells expressing GFP-axin alone or with Flag-tankyrase; washed on beads, eluted by denaturation; western blot for axin and tankyrase

The chains behind the UniProt entries cited, without tags or fusion partners.
UniProt O95271: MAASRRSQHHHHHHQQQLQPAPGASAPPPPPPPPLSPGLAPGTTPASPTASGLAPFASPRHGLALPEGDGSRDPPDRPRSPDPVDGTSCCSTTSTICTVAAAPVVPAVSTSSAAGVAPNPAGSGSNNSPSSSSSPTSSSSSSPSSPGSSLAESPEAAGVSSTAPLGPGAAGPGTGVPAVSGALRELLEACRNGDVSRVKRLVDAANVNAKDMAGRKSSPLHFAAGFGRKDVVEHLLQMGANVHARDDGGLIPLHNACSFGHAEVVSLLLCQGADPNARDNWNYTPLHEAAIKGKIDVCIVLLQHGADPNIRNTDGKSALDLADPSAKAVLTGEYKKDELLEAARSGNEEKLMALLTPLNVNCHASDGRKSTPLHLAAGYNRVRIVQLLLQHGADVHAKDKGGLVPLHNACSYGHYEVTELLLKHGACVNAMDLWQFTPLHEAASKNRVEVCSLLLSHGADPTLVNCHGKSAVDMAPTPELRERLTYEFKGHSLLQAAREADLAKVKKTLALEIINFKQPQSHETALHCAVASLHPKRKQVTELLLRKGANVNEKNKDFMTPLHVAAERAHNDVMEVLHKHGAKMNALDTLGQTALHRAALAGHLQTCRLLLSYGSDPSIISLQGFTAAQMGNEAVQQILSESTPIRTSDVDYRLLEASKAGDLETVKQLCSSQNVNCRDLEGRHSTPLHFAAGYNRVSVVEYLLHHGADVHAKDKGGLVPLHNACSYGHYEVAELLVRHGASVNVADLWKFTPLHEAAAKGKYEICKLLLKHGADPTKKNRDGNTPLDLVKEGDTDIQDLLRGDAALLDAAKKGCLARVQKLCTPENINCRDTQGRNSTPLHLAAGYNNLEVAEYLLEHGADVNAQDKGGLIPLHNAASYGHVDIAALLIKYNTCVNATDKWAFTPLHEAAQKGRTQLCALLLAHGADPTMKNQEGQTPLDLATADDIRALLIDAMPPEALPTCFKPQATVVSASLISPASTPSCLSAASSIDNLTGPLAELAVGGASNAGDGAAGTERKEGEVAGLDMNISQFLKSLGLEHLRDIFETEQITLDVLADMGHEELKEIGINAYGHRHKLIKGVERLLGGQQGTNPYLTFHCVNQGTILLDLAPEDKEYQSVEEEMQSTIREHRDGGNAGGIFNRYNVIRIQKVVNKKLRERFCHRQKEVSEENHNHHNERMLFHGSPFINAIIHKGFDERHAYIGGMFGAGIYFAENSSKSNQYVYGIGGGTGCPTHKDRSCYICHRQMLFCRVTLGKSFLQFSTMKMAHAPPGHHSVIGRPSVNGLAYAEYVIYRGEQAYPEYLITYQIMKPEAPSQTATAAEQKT
UniProt O70239: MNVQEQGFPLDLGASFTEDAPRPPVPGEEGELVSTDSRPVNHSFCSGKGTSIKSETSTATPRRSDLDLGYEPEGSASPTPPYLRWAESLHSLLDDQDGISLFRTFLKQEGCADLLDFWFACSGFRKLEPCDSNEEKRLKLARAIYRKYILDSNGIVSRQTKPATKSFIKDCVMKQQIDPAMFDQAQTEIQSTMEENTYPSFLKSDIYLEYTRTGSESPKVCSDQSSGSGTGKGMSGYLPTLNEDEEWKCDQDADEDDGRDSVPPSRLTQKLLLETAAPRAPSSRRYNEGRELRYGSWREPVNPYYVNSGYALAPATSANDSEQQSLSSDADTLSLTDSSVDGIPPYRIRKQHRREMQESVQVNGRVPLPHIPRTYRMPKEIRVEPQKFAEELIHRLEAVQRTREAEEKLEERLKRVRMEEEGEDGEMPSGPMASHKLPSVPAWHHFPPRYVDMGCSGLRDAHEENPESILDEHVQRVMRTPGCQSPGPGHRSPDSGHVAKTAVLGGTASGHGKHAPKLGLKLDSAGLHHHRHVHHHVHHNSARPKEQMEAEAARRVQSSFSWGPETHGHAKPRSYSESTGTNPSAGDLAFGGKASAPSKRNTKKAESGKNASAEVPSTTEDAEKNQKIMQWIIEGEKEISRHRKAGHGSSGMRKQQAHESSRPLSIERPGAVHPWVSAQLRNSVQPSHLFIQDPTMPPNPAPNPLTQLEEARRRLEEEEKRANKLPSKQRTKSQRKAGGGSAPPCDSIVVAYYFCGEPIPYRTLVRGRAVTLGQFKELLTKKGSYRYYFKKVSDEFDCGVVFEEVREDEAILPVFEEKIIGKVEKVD

binding: binds
Substance: GFP-tagged rat axin (GFP-axin, 1-827) (from UniProt O70239 1-827)

— PMC10652037
